Results deposited as PubChem BioAssay AID1259276 (Sanger Institute, 2017).
Shown is an unselected part of 794 reagents tested. 24 of all reagents (3%) count as active. 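Calls come only from the siRNA-alone arm; drug synergy scores do not affect them.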 A number with no mark means an inactive call. No viability above 1 is reported: the scale is capped. Not given: the amount of reagent, the time to read-out.

Screen: 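Find kinases whose silencing cuts viability alone or combined with BYL719, cetuximab or trametinib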 (primary screen)
Cell system: human C2BBe1 colorectal cancer cells
Reagents: siRNA pool against human genes
Challenge: DMSO vehicle, or one anchor drug: BYL719 at 1 µM, cetuximab at 5 µg/ml, or trametinib at 10 nM; exposure length not stated
Detection: 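Viability after knock-down relative to non-targeting siRNA controls, averaged across replicates, given as ratio and control-derived robust z-score, with per-drug synergy scores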
Direction: viability robust z-score, siRNA alone and viability vs control, siRNA alone: higher = more viable cells after knock-down; synergy score with BYL719: higher = stronger combined killing with BYL719; synergy score with cetuximab: higher = stronger combined killing with cetuximab; synergy score with trametinib: higher = stronger combined killing with trametinib
Rule for the call: 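a siRNA pool tested without drug is essential if its viability robust z-score falls under -3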
Calls: active = essential (siRNA alone); inactive = no change (siRNA alone)

| gene | viability robust z-score, siRNA alone | viability vs control, siRNA alone | synergy score with BYL719 | synergy score with cetuximab | synergy score with trametinib |
| --- | --- | --- | --- | --- | --- |
| GRK5 (G protein-coupled receptor kinase 5) | 0.472 | 1 | -0.115 | -0.0115 | -0.0667 |
| ACVR1B (activin A receptor type 1B) | 0.472 | 1 | -0.0258 | 0.142 | -0.0346 |
| PIK3C2A | 0.472 | 1 | 0.102 | 0.181 | -0.031 |
| RAF1 (Raf-1 proto-oncogene, serine/threonine kinase) | 0.472 | 1 | -0.142 | -0.0115 | -0.0667 |
| TSSK1B (testis specific serine kinase 1B) | 0.472 | 1 | -0.0541 | -0.0115 | -0.0667 |
| TBX3 (T-box transcription factor 3) | 0.472 | 1 | -0.0166 | -0.0115 | -0.0667 |
| PBK (PDZ binding kinase) | -0.291 | 0.952 | -0.183 | -0.059 | -0.112 |
| ROCK1 (Rho associated coiled-coil containing protein kinase 1) | 0.472 | 1 | -0.142 | -0.0115 | -0.0667 |
| CLK3 (CDC like kinase 3) | 0.472 | 1 | -0.0665 | 0.0131 | -0.0667 |
| PSTK (phosphoseryl-tRNA kinase) | 0.472 | 1 | 0.349 | 0.157 | -0.0667 |
| TRIM27 (tripartite motif containing 27) | -0.99 | 0.908 | -0.0618 | -0.103 | -0.153 |
| AKT1 (AKT serine/threonine kinase 1) | -1.89 | 0.851 | 0.0625 | -0.159 | -0.15 |
| CAMK1D (calcium/calmodulin dependent protein kinase ID) | 0.472 | 1 | 0.0431 | 0.0978 | -0.0667 |
| DYRK1B | 0.472 | 1 | -0.142 | -0.0115 | -0.0667 |
| TRIB3 (tribbles pseudokinase 3) | 0.472 | 1 | 0.264 | 0.0201 | 0.0716 |
| MAPK6 (mitogen-activated protein kinase 6) | 0.472 | 1 | -0.0528 | -0.0115 | -0.0667 |
| EPHA4 (EPH receptor A4) | 0.472 | 1 | -0.0656 | 0.0159 | 0.123 |
| PI4K2A (phosphatidylinositol 4-kinase type 2 alpha) | -0.207 | 0.957 | 0.0147 | 0.183 | -0.107 |
| EPHA10 (EPH receptor A10) | -0.813 | 0.919 | 0.0418 | 0.226 | -0.0205 |
| MAPK4 (mitogen-activated protein kinase 4) | 0.472 | 1 | 0.0022 | 0.00518 | 0.216 |
| NR2F2 (nuclear receptor subfamily 2 group F member 2) | 0.472 | 1 | -0.0301 | 0.0662 | -0.0667 |
| ALPK2 (alpha kinase 2) | 0.472 | 1 | -0.0876 | 0.0476 | -0.0175 |
| MYLK2 (myosin light chain kinase 2) | -1.16 | 0.897 | -0.016 | 0.0348 | 0.222 |
| CDC73 (cell division cycle 73) | 0.472 | 1 | -0.0147 | 0.0281 | 0.0443 |
| PKIB (cAMP-dependent protein kinase inhibitor beta) | -1 | 0.907 | -0.0261 | -0.102 | 0.0491 |
| SYK (spleen associated tyrosine kinase) | 0.472 | 1 | 0.141 | 0.172 | 0.125 |
| FBXW7 (F-box and WD repeat domain containing 7) | 0.472 | 1 | -0.0954 | 0.176 | -0.0667 |
| PRAG1 (PEAK1 related, kinase-activating pseudokinase 1) | 0.472 | 1 | 0.0749 | -0.0115 | -0.0667 |
| HASPIN (histone H3 associated protein kinase) | 0.472 | 1 | 0.182 | 0.124 | -0.0667 |
| MAPK15 (mitogen-activated protein kinase 15) | 0.472 | 1 | -0.142 | -0.0115 | -0.0667 |
| CAD | 0.472 | 1 | -0.0653 | -0.0115 | -0.0238 |
| ADCK2 (aarF domain containing kinase 2) | 0.472 | 1 | 0.197 | 0.186 | 0.24 |
| NEK9 (NIMA related kinase 9) | 0.472 | 1 | 0.209 | -0.0115 | -0.0667 |
| TWF1 (twinfilin actin binding protein 1) | 0.472 | 1 | -0.142 | 0.241 | -0.0667 |
| RYK (receptor like tyrosine kinase) | 0.472 | 1 | -0.0244 | -0.0115 | -0.036 |
| MAK (male germ cell associated kinase) | 0.472 | 1 | -0.0871 | -0.0115 | 0.0179 |
| WNK4 (WNK lysine deficient protein kinase 4) | 0.472 | 1 | -0.0123 | 0.121 | 0.0177 |
| MOS (MOS proto-oncogene, serine/threonine kinase) | 0.472 | 1 | 0.0426 | 0.00649 | 0.186 |
| EPHA3 (EPH receptor A3) | -0.676 | 0.928 | 0.109 | -0.083 | -0.134 |
| TWF2 (twinfilin actin binding protein 2) | 0.472 | 1 | 0.0868 | -0.00593 | -0.0667 |
| TAOK1 (TAO kinase 1) | -0.14 | 0.961 | 0.0738 | 0.128 | 0.0541 |
| GRK1 (G protein-coupled receptor kinase 1) | 0.472 | 1 | -0.135 | -0.0115 | -0.0667 |
| CNOT1 (CCR4-NOT transcription complex subunit 1) | -0.298 | 0.951 | 0.0397 | -0.0595 | -0.112 |
| NRBP1 (nuclear receptor binding protein 1) | 0.315 | 0.99 | 0.229 | -0.0213 | -0.0759 |
| CSNK1G2 (casein kinase 1 gamma 2) | -2.31 | 0.825 | -0.101 | -0.185 | -0.211 |
| PCBP1 (poly(rC) binding protein 1) | -0.773 | 0.921 | -0.0471 | -0.011 | -0.00998 |
| ALPK3 (alpha kinase 3) | 0.472 | 1 | -0.142 | 0.0583 | -0.0405 |
| CSK (C-terminal Src kinase) | 0.472 | 1 | -0.101 | 0.00853 | -0.0667 |
| TYRO3 (TYRO3 protein tyrosine kinase) | 0.472 | 1 | -0.061 | -0.0115 | -0.0667 |
| PRKD2 (protein kinase D2) | 0.371 | 0.994 | -0.147 | 0.0949 | 0.122 |
| DCLK2 (doublecortin like kinase 2) | 0.472 | 1 | -0.142 | 0.0436 | -0.0667 |
| EPHB3 (EPH receptor B3) | 0.472 | 1 | 0.0384 | -0.0115 | -0.0667 |
| TESK1 (testis associated actin remodelling kinase 1) | -1.24 | 0.892 | -0.014 | -0.118 | -0.115 |
| GATA3 (GATA binding protein 3) | 0.472 | 1 | -0.142 | 0.0984 | -0.0667 |
| TGFBR1 (transforming growth factor beta receptor 1) | 0.472 | 1 | -0.142 | -0.0115 | 0.0106 |
| SPHK1 (sphingosine kinase 1) | -1.58 | 0.871 | 0.0348 | -0.0826 | -0.129 |
| TP53BP1 (tumor protein p53 binding protein 1) | 0.472 | 1 | 0.0782 | 0.0341 | -0.0667 |
| PRKG2 (protein kinase cGMP-dependent 2) | 0.472 | 1 | -0.0556 | -0.0115 | 0.155 |
| NTRK3 (neurotrophic receptor tyrosine kinase 3) | 0.472 | 1 | -0.142 | -0.0115 | -0.0667 |
| PNKP (polynucleotide kinase 3'-phosphatase) | 0.472 | 1 | 0.0353 | 0.049 | 0.0181 |
| MAP3K10 (mitogen-activated protein kinase kinase kinase 10) | 0.472 | 1 | 0.0188 | -0.0115 | -0.0667 |
| SPHK2 (sphingosine kinase 2) | 0.472 | 1 | -0.113 | -0.0115 | -0.0667 |
| CAMK2N1 (calcium/calmodulin dependent protein kinase II inhibitor 1) | 0.472 | 1 | 0.295 | -0.0115 | -0.0667 |

A run of entries from the list above, for reference:
| gene | viability robust z-score, siRNA alone | viability vs control, siRNA alone | synergy score with BYL719 | synergy score with cetuximab | synergy score with trametinib |
| --- | --- | --- | --- | --- | --- |
| TGFBR1 (transforming growth factor beta receptor 1) | 0.472 | 1 | -0.142 | -0.0115 | 0.0106 |
| SPHK1 (sphingosine kinase 1) | -1.58 | 0.871 | 0.0348 | -0.0826 | -0.129 |
| TP53BP1 (tumor protein p53 binding protein 1) | 0.472 | 1 | 0.0782 | 0.0341 | -0.0667 |
| PRKG2 (protein kinase cGMP-dependent 2) | 0.472 | 1 | -0.0556 | -0.0115 | 0.155 |
